Test results published in article PMC13291236.
No constants are given. Whether binding was seen depends on the method and setting. Binding seen in cells or lysates may run through a third protein. Some entries that bind do so weakly or less than the wild type.

The chains behind the UniProt entries cited, without tags or fusion partners. Residues count along the entry.
UniProt Q03265, residues 44-553: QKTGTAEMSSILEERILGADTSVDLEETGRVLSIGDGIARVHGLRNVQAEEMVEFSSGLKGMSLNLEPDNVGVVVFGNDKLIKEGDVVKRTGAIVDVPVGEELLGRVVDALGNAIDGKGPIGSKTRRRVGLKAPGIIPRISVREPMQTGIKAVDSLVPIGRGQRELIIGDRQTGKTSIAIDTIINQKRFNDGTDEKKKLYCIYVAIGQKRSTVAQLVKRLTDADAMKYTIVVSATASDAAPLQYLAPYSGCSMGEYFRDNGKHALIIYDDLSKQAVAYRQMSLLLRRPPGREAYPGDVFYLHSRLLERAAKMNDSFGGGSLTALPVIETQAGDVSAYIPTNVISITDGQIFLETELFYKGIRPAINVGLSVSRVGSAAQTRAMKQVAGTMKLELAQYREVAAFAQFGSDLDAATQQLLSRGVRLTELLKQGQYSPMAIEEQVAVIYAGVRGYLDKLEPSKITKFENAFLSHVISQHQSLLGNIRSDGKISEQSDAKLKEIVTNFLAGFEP
UniProt P56480, residues 47-529: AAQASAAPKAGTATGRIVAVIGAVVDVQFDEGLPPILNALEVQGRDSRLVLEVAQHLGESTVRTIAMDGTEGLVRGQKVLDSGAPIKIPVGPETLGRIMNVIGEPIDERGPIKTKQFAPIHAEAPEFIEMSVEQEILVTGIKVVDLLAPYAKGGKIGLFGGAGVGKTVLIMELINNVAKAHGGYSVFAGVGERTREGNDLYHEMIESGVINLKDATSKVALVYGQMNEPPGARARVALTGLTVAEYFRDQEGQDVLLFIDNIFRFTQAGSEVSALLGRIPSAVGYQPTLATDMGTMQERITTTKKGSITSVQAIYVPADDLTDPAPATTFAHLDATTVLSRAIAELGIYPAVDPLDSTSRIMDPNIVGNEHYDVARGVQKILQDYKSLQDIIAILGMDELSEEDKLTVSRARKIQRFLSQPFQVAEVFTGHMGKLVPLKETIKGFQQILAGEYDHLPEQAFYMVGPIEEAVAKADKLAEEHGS
UniProt P03930: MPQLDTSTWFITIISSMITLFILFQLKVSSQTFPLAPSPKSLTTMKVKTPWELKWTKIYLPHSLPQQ
UniProt Q99KR7, residues 30-206: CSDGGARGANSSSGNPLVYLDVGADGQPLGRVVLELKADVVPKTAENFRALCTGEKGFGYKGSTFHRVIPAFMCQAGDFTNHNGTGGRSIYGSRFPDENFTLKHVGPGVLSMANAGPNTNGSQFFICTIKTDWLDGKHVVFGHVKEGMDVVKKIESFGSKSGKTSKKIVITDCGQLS
UniProt Q8K2B3, residues 43-664: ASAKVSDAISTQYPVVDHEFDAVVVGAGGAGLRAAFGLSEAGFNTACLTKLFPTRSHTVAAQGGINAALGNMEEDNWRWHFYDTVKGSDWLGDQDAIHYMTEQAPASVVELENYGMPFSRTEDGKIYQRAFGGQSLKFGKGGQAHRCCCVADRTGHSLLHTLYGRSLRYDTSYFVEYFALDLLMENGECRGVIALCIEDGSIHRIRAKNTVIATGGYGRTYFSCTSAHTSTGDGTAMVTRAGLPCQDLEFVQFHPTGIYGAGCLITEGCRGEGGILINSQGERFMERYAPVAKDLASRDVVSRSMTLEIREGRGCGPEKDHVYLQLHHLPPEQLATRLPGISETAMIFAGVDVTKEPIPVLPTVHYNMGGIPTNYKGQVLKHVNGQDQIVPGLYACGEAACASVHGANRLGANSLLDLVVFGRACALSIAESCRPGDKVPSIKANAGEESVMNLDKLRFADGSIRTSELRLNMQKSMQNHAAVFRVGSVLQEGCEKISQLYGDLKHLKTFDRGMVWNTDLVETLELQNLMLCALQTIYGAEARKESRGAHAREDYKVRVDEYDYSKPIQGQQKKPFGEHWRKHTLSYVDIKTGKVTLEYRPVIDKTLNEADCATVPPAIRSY

How the values were obtained:
Test in all cases: cross-linking; in-solution XL-MS: intact heart mitochondria (500 µg) of wild-type and Lrpprc knockout mice, 0.5 mM DSSO, 45 min, 15 °C; LC-MS/MS, XlinkX; n = 3 biological replicates
[1] = target: T1, peripheral stalk subunit ATP5J (mouse (endogenous in heart mitochondria)) (UniProt P97450)
T1 sequence: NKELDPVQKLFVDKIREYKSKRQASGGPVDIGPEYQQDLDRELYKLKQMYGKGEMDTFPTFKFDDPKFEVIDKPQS

[2] = target: ATP synthase F1 subunit α (ATPA) (mouse (endogenous in heart mitochondria)) (UniProt Q03265)
[3] = target: ATP synthase F1 subunit β (ATPB) (mouse (endogenous in heart mitochondria)) (UniProt P56480)
[4] = target: T2, ATPase inhibitory factor 1 (ATIF1) (mouse (endogenous in heart mitochondria)) (UniProt O35143)
T2 sequence: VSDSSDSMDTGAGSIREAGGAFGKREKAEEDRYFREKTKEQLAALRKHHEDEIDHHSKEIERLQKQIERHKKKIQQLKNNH

Substance: ATP synthase F1 subunit β (ATPB) (from UniProt P56480 47-529)
- binding [1]: binds

Substance: FO membrane subunit ATP8 (from UniProt P03930 1-67)
- binding [1]: binds

Substance: PPIF (Cyclophilin D) (from UniProt Q99KR7 30-206) (enzyme)
- binding [2]: binds
- binding [3]: binds

Substance: SDHA (from UniProt Q8K2B3 43-664) (enzyme)
- binding [4]: binds
